Screening data, single-dose tests

Chains of the proteins cited; added tags and fusions are not shown. Residues count along the entry.
UniProt Q4DA54, 1-478: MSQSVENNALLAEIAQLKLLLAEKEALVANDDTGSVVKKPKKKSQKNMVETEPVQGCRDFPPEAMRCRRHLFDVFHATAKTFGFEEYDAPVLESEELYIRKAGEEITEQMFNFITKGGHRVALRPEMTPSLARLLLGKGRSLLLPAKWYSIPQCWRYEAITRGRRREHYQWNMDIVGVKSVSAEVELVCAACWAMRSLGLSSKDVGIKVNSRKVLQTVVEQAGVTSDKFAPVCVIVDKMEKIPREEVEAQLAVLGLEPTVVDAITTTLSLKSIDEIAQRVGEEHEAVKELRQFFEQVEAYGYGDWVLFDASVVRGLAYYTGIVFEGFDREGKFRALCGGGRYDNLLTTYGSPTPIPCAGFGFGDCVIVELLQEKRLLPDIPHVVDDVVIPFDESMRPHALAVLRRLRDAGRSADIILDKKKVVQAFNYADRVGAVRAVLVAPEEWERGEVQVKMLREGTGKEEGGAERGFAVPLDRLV
UniProt Q8IDJ8, 1-583: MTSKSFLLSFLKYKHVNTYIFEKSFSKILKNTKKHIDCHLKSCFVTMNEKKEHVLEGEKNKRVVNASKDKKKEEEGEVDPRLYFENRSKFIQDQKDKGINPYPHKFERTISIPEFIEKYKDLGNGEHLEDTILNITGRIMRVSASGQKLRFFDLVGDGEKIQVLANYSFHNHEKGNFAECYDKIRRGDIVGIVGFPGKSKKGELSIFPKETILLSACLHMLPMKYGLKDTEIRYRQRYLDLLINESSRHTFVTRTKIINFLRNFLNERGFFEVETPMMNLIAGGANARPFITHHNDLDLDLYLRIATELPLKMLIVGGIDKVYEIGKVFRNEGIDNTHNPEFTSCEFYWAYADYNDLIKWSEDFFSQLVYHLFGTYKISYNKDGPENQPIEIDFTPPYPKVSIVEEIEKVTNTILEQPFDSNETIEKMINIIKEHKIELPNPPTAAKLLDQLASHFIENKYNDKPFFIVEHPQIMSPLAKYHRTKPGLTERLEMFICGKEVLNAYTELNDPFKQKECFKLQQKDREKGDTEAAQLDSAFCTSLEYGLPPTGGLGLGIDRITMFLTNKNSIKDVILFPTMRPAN

TcHisRS: 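Enzyme assay of histidyl-tRNA synthetase; the read-out is not stated. Target: Histidine-tRNA ligase, Trypanosoma cruzi CL Brener (UniProt Q4DA54). Concentration: 30 µM. Higher reads as stronger inhibition (inferred: compounds with an IC50 in retests scored well above the rest). Of about 69,000 compounds tested this way, about 31 (0.045%) reached 50% or more in at least one test.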
PfKRS1: 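Enzyme assay of the cytosolic lysyl-tRNA synthetase in 384-well plates, read by luminescence. Target: Lysine-tRNA ligase, Plasmodium falciparum 3D7 (UniProt Q8IDJ8). Tested at 30 µM. Higher reads as stronger inhibition, judged from the few compounds that gave an IC50. About 69,000 compounds were tested under these conditions; 0.071% (about 49) showed 50% or more at least once.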

The filed quantity is “Percent Effect” (%).
The record does not define 0% and 100%; most values in the screen are far below 50% and negative numbers occur (in some assays of this library far below -100).
The compounds are a random part of those screened.

Result for Cc1nc(CCC(N)=O)cc(C2CCCCN2S(C)(=O)=O)n1 (stereo not shown) was TcHisRS: 2.571%; PfKRS1: 0.6282%. With Cc1cc(C2CCC2)nc(N(C)Cc2cc(-c3ccccn3)no2)n1 the screen gave TcHisRS: 3.093%; PfKRS1: 8.14%. With CCOc1ncccc1NC(=O)N1CCN(CC(=O)NC)CC1 the screen gave TcHisRS: 2.624%; PfKRS1: 4.336%. CC(C)(N)c1cn([C@@H]2c3ccccc3C3(CCNCC3)[C@H]2O)nn1 gave TcHisRS: 4.233%; PfKRS1: 4.741%. With CCCC(NC(=O)c1cc(C2CC2)[nH]n1)c1nnc2ccccn12 (stereo not shown) the screen gave TcHisRS: 3.175%; PfKRS1: 4.85%.

Nc1nnnn1NCc1cccc2ccccc12 read TcHisRS: 0.4464%; PfKRS1: 5.988%. Cc1nccc(N2CCC(=O)N(Cc3ccc(F)cc3)C(C(C)C)C2)n1 (stereo not shown) gave TcHisRS: 6.504%; PfKRS1: 1.208%. With CC(C)c1nccn1C1CCCN(C(=O)c2ccc(=O)n(C)n2)C1 (stereo not shown) the screen gave TcHisRS: 2.128%; PfKRS1: -1.822%. C=C(C)CN1CCC(c2n[nH]c(C3CC3)n2)CC1 gave TcHisRS: -4.598%; PfKRS1: 0.1225%. With N#CC(NC(=O)CC1CCSCC1)c1cnn(-c2ccccc2)c1 (stereo not shown) the screen gave TcHisRS: -1.235%; PfKRS1: 4.686%.

CCN1Cc2nc(OC)c(CNC(=O)CCC3CCCC3)cc2C1=O gave TcHisRS: 7.071%; PfKRS1: 2.675%. Result for CC(=O)N(C/C=C/c1ccccc1)CCO was TcHisRS: -12.56%; PfKRS1: 3.499%. CC(NC(=O)c1cccs1)C(=O)NS(=O)(=O)Cc1ccc(C#N)cc1 (stereo not shown) gave TcHisRS: 5.952%; PfKRS1: 3.852%. Cn1cc(C2COC3(CCN(C(=O)Cn4cccn4)CC3)C2)cn1 (stereo not shown) read TcHisRS: 2.762%; PfKRS1: 2.014%. For CC(C)N1CCC(c2ccnc3c(C(=O)N4CCCC4)ncn23)CC1 the result was TcHisRS: 8.589%; PfKRS1: 5.926%.

Result for COc1ccccc1CN1CC(OC)CN(C(=O)OCC(C)C)CC1=O (stereo not shown) was TcHisRS: 3.468%; PfKRS1: 2.954%. With Cc1cc(CN2C[C@@H]3CN(Cc4ccsc4)CCO[C@@H]3C2)no1 the screen gave TcHisRS: 6.557%; PfKRS1: 3.953%. Result for COc1ccccc1CC(=O)N1CCCC(c2nccn2CC(N)=O)C1 (stereo not shown) was TcHisRS: 1.176%; PfKRS1: -0.9627%. With O=C(Cc1ccccc1C(F)(F)F)N1CCC2(CC1)OCCCC2O (stereo not shown) the screen gave TcHisRS: 0%; PfKRS1: -1.808%. For CCCc1nc(CN(CC)C(=O)c2ccc(OC)c(OC)c2)no1 the result was TcHisRS: 9.74%; PfKRS1: -0.7743%.

With CCS(=O)(=O)CCNC(=O)[C@@]12CNC[C@@H]1CN(C1CCCC1)C2 the screen gave TcHisRS: 1.685%; PfKRS1: 2.879%. CN(C(=O)Cc1ccc(NC(=O)NC2CC2)cc1)c1ccccc1 read TcHisRS: 0.8333%; PfKRS1: 1.696%. Cc1cnn(CC2CCN(CC(O)COc3ccccc3)CC2)c1 (stereo not shown) gave TcHisRS: 5.419%; PfKRS1: 5.889%. For CCCc1n[nH]c(C2CN(CCNS(C)(=O)=O)CCO2)n1 (stereo not shown) the result was TcHisRS: 6.761%; PfKRS1: -0.9485%. N#CC1COCCN1C(=O)c1ccc2[nH]ccc2c1 (stereo not shown) read TcHisRS: 2.01%; PfKRS1: -2.574%.

Result for CC(=O)NCCNC(=O)Nc1cccc(Cl)c1SC(F)F was TcHisRS: 5.911%; PfKRS1: 9.21%. CCC1(CO)CCCN(C(=O)c2cc(COc3ccccc3F)[nH]n2)C1 (stereo not shown) gave TcHisRS: 11.11%; PfKRS1: 0.2347%. For O=C(CCn1ccccc1=O)Nc1ccc(I)cc1 the result was TcHisRS: -1.695%; PfKRS1: 8.703%. Cc1ccc(CN2C[C@@H]3[C@@H](C2)OCC(=O)N3Cc2ccncc2)s1 read TcHisRS: 4.132%; PfKRS1: 1.644%. Result for O=C1[C@H]2CC[C@H](CN(C3CCOCC3)C2)N1Cc1cscn1 was TcHisRS: -0.9804%; PfKRS1: 1.06%.

Cc1c[nH]c(CN2CCCCC2CCc2cccc(O)c2)c(C)c1=O (stereo not shown) read TcHisRS: 9.412%; PfKRS1: 0.4021%. For CN(C)c1ncccc1CNC(=O)NCCN(C)C1CCCC1 the result was TcHisRS: 0.8721%; PfKRS1: 0.3458%. For Cc1nc(C)c(C(=O)NCCNc2ncccn2)s1 the result was TcHisRS: 4.046%; PfKRS1: 1.389%. For CCC(C)N1CCc2c(C(=O)N3CCOCC3)n[nH]c2C1 (stereo not shown) the result was TcHisRS: 0.9709%; PfKRS1: 0.04589%. For FC(F)(F)C1CN(c2nc(-c3ccccc3)no2)CCO1 (stereo not shown) the result was TcHisRS: 1.19%; PfKRS1: 2.552%.

With O=C(CCCNC(=O)c1cnccn1)Nc1ncc[nH]1 the screen gave TcHisRS: -0.5848%; PfKRS1: 4.291%. With CCN(CCC(=O)OC)S(=O)(=O)c1cnc2c(c1)c(C)nn2C the screen gave TcHisRS: 0.578%; PfKRS1: 9.671%. Result for Nc1nnc(C2CC(=O)N(c3ccccc3)C2)s1 (stereo not shown) was TcHisRS: 4.911%; PfKRS1: 0.2236%. With O=C(CC1CC1)N[C@@H]1CN(Cc2ccco2)C[C@@H]2CCCO[C@@H]21 the screen gave TcHisRS: 8.824%; PfKRS1: 13.32%. With CC(=O)Nc1sccc1C(=O)C(C)(C)C the screen gave TcHisRS: 6.18%; PfKRS1: 0.463%.

For CSc1nnc(N(CCC#N)CCC#N)s1 the result was TcHisRS: 4.167%; PfKRS1: -1.113%. With CCCNC(=O)Cn1c(C)nn(C(C)(C)C)c1=O the screen gave TcHisRS: 7.027%; PfKRS1: 2.936%. With CC(=O)c1cn(CCC(=O)Nc2c3c(nn2C)CSC3)c2ccccc12 the screen gave TcHisRS: 11.34%; PfKRS1: 2.176%. OC(CNc1cncc(OCc2ccccc2)n1)c1ccco1 (stereo not shown) read TcHisRS: 4.255%; PfKRS1: 1.078%.

Some entries from above, unchanged:

O=C(CC1CC1)N[C@@H]1CN(Cc2ccco2)C[C@@H]2CCCO[C@@H]21 read TcHisRS: 8.824%; PfKRS1: 13.32%.
CC(C)N1CCC(c2ccnc3c(C(=O)N4CCCC4)ncn23)CC1 read TcHisRS: 8.589%; PfKRS1: 5.926%.
CC(C)(N)c1cn([C@@H]2c3ccccc3C3(CCNCC3)[C@H]2O)nn1 read TcHisRS: 4.233%; PfKRS1: 4.741%.
CCCc1nc(CN(CC)C(=O)c2ccc(OC)c(OC)c2)no1 read TcHisRS: 9.74%; PfKRS1: -0.7743%.
CCCC(NC(=O)c1cc(C2CC2)[nH]n1)c1nnc2ccccn12 (stereo not shown) read TcHisRS: 3.175%; PfKRS1: 4.85%.

From ChEMBL document CHEMBL3988442, “University of Dundee, Small-Polar-MMV Screening Library” (2021).